Results are given in words; binding and its absence hold for the method and conditions named. For part of these data: Binding seen in cells or lysates may run through a third protein. Some results given as binding are weak or reduced against the parent protein; the word gives no strength.
Key:
TDP-43 (human) [1] = target: TDP-43 (human) (UniProt Q13148); test: co-immunoprecipitation, anti-His IP, anti-TDP immunoblot (FIG. 4f)
TDP-43 (human) [2] = target: TDP-43 (human) (UniProt Q13148); test: co-immunoprecipitation, anti-His IP from His-VCP/p97-expressing 293T lysate, anti-TDP immunoblot
[3] = target: Lam B recombinant protein (Homo sapiens (Human)) (UniProt P20700); test: co-incubation of recombinant proteins in vitro, electron microscopy (FIG. 13h)

Protein sequences, listed by entry. Tags and fused reporters are not part of them. Lines headed by an entry give the natural chain unless they say otherwise; changes in a name come on top.
UniProt Q13148: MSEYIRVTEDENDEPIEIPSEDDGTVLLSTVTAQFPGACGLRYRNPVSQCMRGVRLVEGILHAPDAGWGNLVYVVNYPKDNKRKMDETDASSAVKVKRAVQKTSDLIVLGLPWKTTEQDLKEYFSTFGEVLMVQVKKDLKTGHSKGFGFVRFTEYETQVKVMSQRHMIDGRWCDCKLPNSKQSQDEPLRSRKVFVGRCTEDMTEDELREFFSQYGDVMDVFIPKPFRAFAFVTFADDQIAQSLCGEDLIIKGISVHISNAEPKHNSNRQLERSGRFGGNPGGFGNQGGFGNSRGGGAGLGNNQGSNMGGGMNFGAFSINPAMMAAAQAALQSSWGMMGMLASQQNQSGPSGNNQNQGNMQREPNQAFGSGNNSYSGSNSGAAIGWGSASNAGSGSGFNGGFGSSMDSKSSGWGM
UniProt P20700: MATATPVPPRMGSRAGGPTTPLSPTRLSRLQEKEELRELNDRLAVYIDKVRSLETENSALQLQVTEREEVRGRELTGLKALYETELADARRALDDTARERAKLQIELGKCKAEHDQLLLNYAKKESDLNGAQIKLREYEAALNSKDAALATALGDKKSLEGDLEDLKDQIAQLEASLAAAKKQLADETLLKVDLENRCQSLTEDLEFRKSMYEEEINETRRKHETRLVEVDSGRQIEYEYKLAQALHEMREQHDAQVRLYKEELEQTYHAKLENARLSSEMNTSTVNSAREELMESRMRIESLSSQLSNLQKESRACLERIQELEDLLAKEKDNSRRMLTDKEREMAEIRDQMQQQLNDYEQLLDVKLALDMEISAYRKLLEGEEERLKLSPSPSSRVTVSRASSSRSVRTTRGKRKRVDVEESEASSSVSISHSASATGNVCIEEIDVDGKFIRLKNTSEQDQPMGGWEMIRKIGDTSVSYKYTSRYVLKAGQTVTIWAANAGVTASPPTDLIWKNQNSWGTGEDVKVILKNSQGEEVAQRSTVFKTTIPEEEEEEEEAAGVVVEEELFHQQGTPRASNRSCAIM

binding (TDP-43 (human) [1]) | binding (TDP-43 (human) [2]) | binding [3] | Substance
binds | binds |  | His-VCP/p97 wild type (from UniProt P55072 1-806) (enzyme)
 |  | binds | Purified full-length TDP-43 recombinant protein (from UniProt Q13148 1-414)

From US20210121438A1, “METHODS FOR TREATING OR PREVENTING CONFORMATION DISEASES AND METHODS FOR DRUG SCREENING” (GARAGE BRAIN SCIENCE CO., LTD, priority 2018, published 2021)
